Results from the supplement of paper PMC11098740.
The list shows a part of the results. Single values are uncertain, as repeats are few or missing.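 Pooled together, 41 HAP1 clones carry intronic fluorescent tags on 61 cancer-associated proteins, and each clone is recognized by its imaging pattern. Measurements are benchmarked against DMSO-treated control wells. dBET6, a BRD4 degrader, served as the positive control.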

Protein sequences, listed by entry. Tags and fused reporters are not part of them.
UniProt O14980, whole entry: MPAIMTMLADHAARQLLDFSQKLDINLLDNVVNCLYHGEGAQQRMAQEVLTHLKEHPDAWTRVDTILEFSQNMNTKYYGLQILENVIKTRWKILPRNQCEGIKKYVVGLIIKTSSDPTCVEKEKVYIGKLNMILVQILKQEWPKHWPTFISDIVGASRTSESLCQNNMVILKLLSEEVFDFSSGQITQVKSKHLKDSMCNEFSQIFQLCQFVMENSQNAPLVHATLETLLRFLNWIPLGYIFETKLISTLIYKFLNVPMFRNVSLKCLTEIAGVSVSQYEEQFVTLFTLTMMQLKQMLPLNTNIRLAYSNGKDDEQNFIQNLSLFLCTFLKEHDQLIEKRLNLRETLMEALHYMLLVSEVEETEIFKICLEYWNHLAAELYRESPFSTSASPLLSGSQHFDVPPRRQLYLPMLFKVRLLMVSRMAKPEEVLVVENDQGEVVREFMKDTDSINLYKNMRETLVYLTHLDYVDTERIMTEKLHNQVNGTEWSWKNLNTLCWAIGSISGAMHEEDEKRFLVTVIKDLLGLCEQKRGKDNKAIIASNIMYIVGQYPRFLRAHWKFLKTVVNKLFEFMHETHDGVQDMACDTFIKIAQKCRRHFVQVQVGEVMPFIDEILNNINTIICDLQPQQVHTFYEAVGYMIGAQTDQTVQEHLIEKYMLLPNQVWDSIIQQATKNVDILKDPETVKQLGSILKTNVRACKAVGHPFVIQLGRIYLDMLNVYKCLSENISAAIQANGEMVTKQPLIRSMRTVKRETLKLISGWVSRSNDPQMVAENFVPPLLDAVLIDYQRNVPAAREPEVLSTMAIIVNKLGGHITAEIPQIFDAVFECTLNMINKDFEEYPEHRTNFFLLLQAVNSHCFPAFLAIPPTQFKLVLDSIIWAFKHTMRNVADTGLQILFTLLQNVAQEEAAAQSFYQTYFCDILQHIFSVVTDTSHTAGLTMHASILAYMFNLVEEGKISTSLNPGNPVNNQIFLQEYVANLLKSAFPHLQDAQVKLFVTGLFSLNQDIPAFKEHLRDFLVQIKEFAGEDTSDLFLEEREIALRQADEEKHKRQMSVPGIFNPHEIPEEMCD

Assays:
[1] = molecular target: XPO1 (intron 15 mScarlet tag, HAP1) (UniProt O14980); assay: XPO1 fluorescence intensity change vs DMSO (log2 fold change); higher = more XPO1 protein; details: 6 h
[2] = molecular target: BRD4 (intron 10 mScarlet tag, HAP1) (UniProt O60885); assay: BRD4 median nuclear fluorescence intensity change vs DMSO (log2 fold change); higher = more BRD4 protein; details: 6 h

Which results are given for `Cc1nn(C)c2ncc(C(=O)Nc3cccc(NC(=O)c4cccs4)c3)cc12` (10 µM)?
XPO1 fluorescence intensity change (log2) [1]: 0.00876; BRD4 median nuclear fluorescence intensity change (log2) [2]: -0.0207

What does the source list for `Cc1ccc(NC(=O)CCc2ccc(C#N)cc2)nc1` (1 µM)?
XPO1 fluorescence intensity change (log2) [1]: 0.195; BRD4 median nuclear fluorescence intensity change (log2) [2]: 0.0519

With `Cc1cccc(C(=O)Nn2cnc3sc(C)c(C)c3c2=O)n1` (10 µM) as the compound, how does the “XPO1 fluorescence intensity change (log2)” value [1] read?
The value was -0.0896.

And the “BRD4 median nuclear fluorescence intensity change (log2)” value [2]?
The value was 0.00474.

`CSc1ccc(NC(=O)c2cc(Br)ccc2O)cc1` (10 µM) was tested. Which “XPO1 fluorescence intensity change (log2)” value [1] did it give?
Its value is -0.0909.

What about the “BRD4 median nuclear fluorescence intensity change (log2)” value [2] of the same compound?
The value was -0.00834.

For `Cc1ccccc1OCCN(C)c1ncnc2cc(F)ccc12` (10 µM), which “XPO1 fluorescence intensity change (log2)” value [1] is on record?
The value was -0.0551.

And the “BRD4 median nuclear fluorescence intensity change (log2)” value [2]?
Its value is 0.0309.

What does the source list for `CN(CCC(=O)NC(=O)NC12CC3CC(CC(C3)C1)C2)CCc1ccccn1` (10 µM)?
XPO1 fluorescence intensity change (log2) [1]: -0.0389; BRD4 median nuclear fluorescence intensity change (log2) [2]: 0.0961

What does the source list for `COc1ccc(CC(=O)NCc2ccc(F)cc2)cc1F` (10 µM)?
XPO1 fluorescence intensity change (log2) [1]: 0.186; BRD4 median nuclear fluorescence intensity change (log2) [2]: 0.0712

For `ClCc1nc(Cl)c2cc(-c3ccccc3)oc2n1` (10 µM), which “XPO1 fluorescence intensity change (log2)” value [1] is on record?
Its value is 0.0109.

And the “BRD4 median nuclear fluorescence intensity change (log2)” value [2]?
Its value is 0.0175.

For `Cc1nn(C)c2sc(C(=O)Nc3ccc4oc(C(F)(F)F)nc4c3)cc12` (10 µM), which “XPO1 fluorescence intensity change (log2)” value [1] is on record?
Its value is -0.149.

What about the “BRD4 median nuclear fluorescence intensity change (log2)” value [2] of the same compound?
The value was 0.0258.

Which results are given for `O=C(CCc1ccco1)Nc1ccc(N2CCCC2)cn1` (1 µM)?
XPO1 fluorescence intensity change (log2) [1]: 0.0631; BRD4 median nuclear fluorescence intensity change (log2) [2]: 0.0274

Which “XPO1 fluorescence intensity change (log2)” value [1] does the source give for `COc1ccc(-c2noc(CCl)n2)c(OC)c1` (1 µM) here?
The value was -0.00946.

And the “BRD4 median nuclear fluorescence intensity change (log2)” value [2]?
Its value is 0.00577.

Which “XPO1 fluorescence intensity change (log2)” value [1] does the source give for `O=C(CN1CCN(c2nc(N3CCCC3)nc(N3CCCC3)n2)CC1)NC1CC1` (10 µM) here?
The value was -0.0774.

What about the “BRD4 median nuclear fluorescence intensity change (log2)” value [2] of the same compound?
The value was 0.0777.

With `CN(C)CCCNCCCc1ccc(C(C)(C)C)cc1` (10 µM) as the compound, how does the “XPO1 fluorescence intensity change (log2)” value [1] read?
Its value is 0.091.

And the “BRD4 median nuclear fluorescence intensity change (log2)” value [2]?
The value was 0.112.

What does the source list for `CCc1cc2c(N3CCC(C(=O)Nc4cc(C)on4)CC3)ncnc2s1` (10 µM)?
XPO1 fluorescence intensity change (log2) [1]: -0.0489; BRD4 median nuclear fluorescence intensity change (log2) [2]: 0.0351

For `Cc1ncc(CN2CCC(c3nc4cc(Cl)ccc4o3)CC2)s1` (1 µM), which “XPO1 fluorescence intensity change (log2)” value [1] is on record?
The value was -0.0426.

What about the “BRD4 median nuclear fluorescence intensity change (log2)” value [2] of the same compound?
The value was 0.0728.
